PubChem BioAssay AID504786, Drosophila RNAi Screening Center, 2011

Screen: 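Knock-downs reducing HIF reporter induction by the iron chelator DFO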 (primary screen)
Cell system: Drosophila S2 cells with a stable HIF luciferase reporter
Knock-down reagent: long dsRNA against Drosophila genes, about 0.2 µg dsRNA per well of a 384-well plate
Time to read-out: three days of knock-down, then 20 h of DFO before reading
Challenge: desferrioxamine (DFO) at 100 µM, an iron chelator that mimics hypoxia, for 20 h
Read-out: 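Firefly luciferase driven by the mouse ldh-a hypoxia-response element, measured after 20 h of 100 µM DFO; z-scores per plate, higher means more signal lost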
Scale: z-score: higher = stronger loss of HIF reporter signal
In all, the deposit lists about 21,000 reagents; this is an unselected part of those with a known target gene and a result. 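Primary screen; positive scores mean lost reporter signal, so the sign may be inverted from the usual convention.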 The numbers tell different reagents against one gene apart. Not all columns of the deposit are shown.

{"Target gene": "CG8303", "reagent no.": 1, "z-score, replicate 1": -0.3}
{"Target gene": "CG13377", "reagent no.": 1, "z-score, replicate 1": -0.4}
{"Target gene": "CSN7 (COP9 signalosome subunit 7)", "reagent no.": 1, "z-score, replicate 1": 2}
{"Target gene": "CSN7 (COP9 signalosome subunit 7)", "reagent no.": 2, "z-score, replicate 1": 1.8}
{"Target gene": "CG32344", "reagent no.": 1, "z-score, replicate 1": -0.3}
{"Target gene": "smp-30 (Senescence marker protein-30)", "reagent no.": 1, "z-score, replicate 1": -0.2}
{"Target gene": "CG15870", "reagent no.": 1, "z-score, replicate 1": -0.4}
{"Target gene": "Cul5 (Cullin 5)", "reagent no.": 1, "z-score, replicate 1": -0.3}
{"Target gene": "mey (morpheyus)", "reagent no.": 1, "z-score, replicate 1": -0.1}
{"Target gene": "CG15012", "reagent no.": 1, "z-score, replicate 1": -0.4}
{"Target gene": "CG9166", "reagent no.": 1, "z-score, replicate 1": 0}
{"Target gene": "Tie (Tie-like receptor tyrosine kinase)", "reagent no.": 1, "z-score, replicate 1": 1.1}
{"Target gene": "Tie (Tie-like receptor tyrosine kinase)", "reagent no.": 2, "z-score, replicate 1": 2.8}
{"Target gene": "CG32944", "reagent no.": 1, "z-score, replicate 1": -0.3}
{"Target gene": "CG32944", "reagent no.": 2, "z-score, replicate 1": -0.2}
{"Target gene": "CG31055", "reagent no.": 1, "z-score, replicate 1": -0.2}
{"Target gene": "CG14313", "reagent no.": 1, "z-score, replicate 1": -0.6}
{"Target gene": "CG9896", "reagent no.": 1, "z-score, replicate 1": -0.9}
{"Target gene": "CG9896", "reagent no.": 2, "z-score, replicate 1": -0.3}
{"Target gene": "Tret1-2 (Trehalose transporter 1-2)", "reagent no.": 1, "z-score, replicate 1": -0.4}
{"Target gene": "CG2961", "reagent no.": 1, "z-score, replicate 1": -0.3}
{"Target gene": "CG4213", "reagent no.": 1, "z-score, replicate 1": -0.4}
{"Target gene": "CG34286", "reagent no.": 1, "z-score, replicate 1": -0.6}
{"Target gene": "CG1116", "reagent no.": 1, "z-score, replicate 1": -0.1}
{"Target gene": "CG14400", "reagent no.": 1, "z-score, replicate 1": -0.3}
{"Target gene": "ppk23 (pickpocket 23)", "reagent no.": 1, "z-score, replicate 1": 0}
{"Target gene": "CG11617", "reagent no.": 1, "z-score, replicate 1": -0.3}
{"Target gene": "CG5568", "reagent no.": 1, "z-score, replicate 1": -0.2}
{"Target gene": "CG10600", "reagent no.": 1, "z-score, replicate 1": -0.4}
{"Target gene": "Alh (Alhambra)", "reagent no.": 1, "z-score, replicate 1": 3.3}
{"Target gene": "Alh (Alhambra)", "reagent no.": 2, "z-score, replicate 1": -0.5}
{"Target gene": "Alh (Alhambra)", "reagent no.": 3, "z-score, replicate 1": 0.1}
{"Target gene": "Achl (Achilles)", "reagent no.": 1, "z-score, replicate 1": -0.2}
{"Target gene": "CG11334", "reagent no.": 1, "z-score, replicate 1": 0}
{"Target gene": "CG11334", "reagent no.": 2, "z-score, replicate 1": -0.3}
{"Target gene": "CG31373", "reagent no.": 1, "z-score, replicate 1": -0.1}
{"Target gene": "CG6870", "reagent no.": 1, "z-score, replicate 1": -0.3}
{"Target gene": "CG14085", "reagent no.": 1, "z-score, replicate 1": -0.3}
{"Target gene": "CG31102", "reagent no.": 1, "z-score, replicate 1": -0.4}
{"Target gene": "daed (daedalus)", "reagent no.": 1, "z-score, replicate 1": -0.3}
{"Target gene": "InR (Insulin-like receptor)", "reagent no.": 1, "z-score, replicate 1": 0.2}
{"Target gene": "CG14715", "reagent no.": 1, "z-score, replicate 1": -0.3}
{"Target gene": "CCDC53 (Coiled-coil domain containing 53)", "reagent no.": 1, "z-score, replicate 1": -0.1}
{"Target gene": "CG42258", "reagent no.": 1, "z-score, replicate 1": -0.1}
{"Target gene": "CG42258", "reagent no.": 2, "z-score, replicate 1": -0.3}
{"Target gene": "CG32767", "reagent no.": 1, "z-score, replicate 1": 0.3}
{"Target gene": "CG7497", "reagent no.": 1, "z-score, replicate 1": -0.2}
{"Target gene": "CG11134", "reagent no.": 1, "z-score, replicate 1": -0.8}
{"Target gene": "mAcon1 (Mitochondrial aconitase 1)", "reagent no.": 1, "z-score, replicate 1": -0.2}
{"Target gene": "CG17637", "reagent no.": 1, "z-score, replicate 1": -0.2}
{"Target gene": "CG6414", "reagent no.": 1, "z-score, replicate 1": -0.2}

An excerpt of the results above, as a working copy:
{"Target gene": "CG6870", "reagent no.": 1, "z-score, replicate 1": -0.3}
{"Target gene": "CG14085", "reagent no.": 1, "z-score, replicate 1": -0.3}
{"Target gene": "CG31102", "reagent no.": 1, "z-score, replicate 1": -0.4}
{"Target gene": "daed (daedalus)", "reagent no.": 1, "z-score, replicate 1": -0.3}
{"Target gene": "InR (Insulin-like receptor)", "reagent no.": 1, "z-score, replicate 1": 0.2}
